Data taken from publication PMC7360973.
No constants are given. Whether binding was seen depends on the method and setting.

The chains behind the UniProt entries cited, without tags or fusion partners.
UniProt P11142: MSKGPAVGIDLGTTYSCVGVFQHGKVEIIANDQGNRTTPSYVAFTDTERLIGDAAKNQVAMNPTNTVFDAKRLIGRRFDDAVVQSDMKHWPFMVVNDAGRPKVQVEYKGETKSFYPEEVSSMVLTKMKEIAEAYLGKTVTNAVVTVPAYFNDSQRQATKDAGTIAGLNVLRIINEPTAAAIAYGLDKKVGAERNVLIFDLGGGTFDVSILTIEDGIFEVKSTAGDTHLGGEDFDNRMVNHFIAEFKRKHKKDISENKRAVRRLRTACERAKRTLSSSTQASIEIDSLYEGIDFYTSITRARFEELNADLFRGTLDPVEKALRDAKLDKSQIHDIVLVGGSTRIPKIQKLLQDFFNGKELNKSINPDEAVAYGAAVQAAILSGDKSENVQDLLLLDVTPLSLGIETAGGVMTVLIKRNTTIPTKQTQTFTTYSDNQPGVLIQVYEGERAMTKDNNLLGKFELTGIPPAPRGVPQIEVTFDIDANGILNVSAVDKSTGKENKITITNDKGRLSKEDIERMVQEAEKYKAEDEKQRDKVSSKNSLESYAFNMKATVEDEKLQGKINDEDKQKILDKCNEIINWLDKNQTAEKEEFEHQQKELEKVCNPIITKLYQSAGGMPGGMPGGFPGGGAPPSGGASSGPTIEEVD

How the values were obtained:
[1] = target: T1, Hsf1 peptide G204‐N214‐C_SSS (human); test: fluorescence polarisation; fluorescein-labelled peptide at 1 μM titrated with Hsc70 (0–60 μM), 2 h at 25°C, HKM150 buffer (25 mM HEPES/KOH pH 7.6, 150 mM KCl, 5 mM MgCl2); Hsc70 concentrated in the presence of 1 mM ATP; quadratic fit; both purified
T1 sequence (peptide, fluorescein-5-maleimide on the C-terminal cysteine): GVKRKSPSMSNC

[2] = target: T2, Hsf1 peptide N200‐K208‐C_SSS (human); test: as above
T2 sequence (peptide, fluorescein-5-maleimide on the C-terminal cysteine): NRSSGSKRKC

- binding [1]: no binding (tested: 0–60 μM Hsc70)
- binding [2]: no binding (tested: 0–60 μM Hsc70)
Substance: Human Hsc70 (HSPA8) (from UniProt P11142 1-646)
